Publication PMC10787067, “EBF2 Links KMT2D‐Mediated H3K4me1 to Suppress Pancreatic Cancer Progression via Upregulating KLLN” (Advanced Science, 2023)

Chains of the proteins cited; added tags and fusions are not shown.
UniProt P50579: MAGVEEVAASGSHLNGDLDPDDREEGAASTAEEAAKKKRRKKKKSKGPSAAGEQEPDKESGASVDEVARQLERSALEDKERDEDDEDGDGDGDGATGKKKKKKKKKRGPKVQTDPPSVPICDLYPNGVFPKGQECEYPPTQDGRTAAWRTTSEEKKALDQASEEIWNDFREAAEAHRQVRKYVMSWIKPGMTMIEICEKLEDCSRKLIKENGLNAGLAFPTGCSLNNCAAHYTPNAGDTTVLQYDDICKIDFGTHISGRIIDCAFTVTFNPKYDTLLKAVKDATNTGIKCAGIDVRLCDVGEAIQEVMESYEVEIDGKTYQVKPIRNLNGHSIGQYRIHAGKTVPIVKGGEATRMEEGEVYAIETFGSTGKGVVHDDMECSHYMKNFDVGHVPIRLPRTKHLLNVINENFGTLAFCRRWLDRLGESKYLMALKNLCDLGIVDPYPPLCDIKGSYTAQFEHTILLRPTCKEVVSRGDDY

Target: H3K4me1 peptide (C-terminal biotin-tagged 19 amino acid N-terminal peptide of histone H3, mono-methylated on Lys 4) (UniProt P68431)
Experiment: affinity purification with mass spectrometry; biotin-tagged H3 peptides incubated with nuclear extract of SW1990 cells, captured on streptavidin agarose, SDS-PAGE with silver staining, bands excised for electrospray-ion trap tandem mass spectrometry; only the target purified

METAP2 (from UniProt P50579 1-478)
binding: binds

Results are given in words; binding and its absence hold for the method and conditions named. In cells and extracts the contact can be indirect. A yes stands for co-enrichment or nearness to the bait. Other partners may have been found.
